These are yes or no findings as the source states them, for the method shown. Binding seen in cells or lysates may run through a third protein. Some binding calls cover weakened binding; strength is not graded here.
How the values were obtained:
[1] = target: EGFP-tagged wild type LaminA (human) (UniProt P02545); test: co-IP; EGFP pull-down (mMACS GFP Epitope Tag Isolation kit, Miltenyi) from nuclear extracts of HDF expressing NLS-EGFP, EGFP-LA or EGFP-PG; lysis buffer 50 mM Hepes pH 7.8, 50 mM KCl, 300 mM NaCl, 0.1 mM EDTA, 10% glycerol, 1 mM DTT; cells non-treated or treated with bleomycin 10 μg/ml, 30 min; western blot; n = 1
[2] = target: EGFP-tagged human LaminA∆50/progerin (human) (UniProt P02545); test: as above

Amino acid sequences for entries named in this document (tags omitted). A change or cut given only in a name is not applied to a line headed by its entry. Chains listed by the source or under a name are the forms on record and can include a tag or linker. Residues count along the entry.
EGFP-tagged wild type LaminA (P02545, residues 1-646): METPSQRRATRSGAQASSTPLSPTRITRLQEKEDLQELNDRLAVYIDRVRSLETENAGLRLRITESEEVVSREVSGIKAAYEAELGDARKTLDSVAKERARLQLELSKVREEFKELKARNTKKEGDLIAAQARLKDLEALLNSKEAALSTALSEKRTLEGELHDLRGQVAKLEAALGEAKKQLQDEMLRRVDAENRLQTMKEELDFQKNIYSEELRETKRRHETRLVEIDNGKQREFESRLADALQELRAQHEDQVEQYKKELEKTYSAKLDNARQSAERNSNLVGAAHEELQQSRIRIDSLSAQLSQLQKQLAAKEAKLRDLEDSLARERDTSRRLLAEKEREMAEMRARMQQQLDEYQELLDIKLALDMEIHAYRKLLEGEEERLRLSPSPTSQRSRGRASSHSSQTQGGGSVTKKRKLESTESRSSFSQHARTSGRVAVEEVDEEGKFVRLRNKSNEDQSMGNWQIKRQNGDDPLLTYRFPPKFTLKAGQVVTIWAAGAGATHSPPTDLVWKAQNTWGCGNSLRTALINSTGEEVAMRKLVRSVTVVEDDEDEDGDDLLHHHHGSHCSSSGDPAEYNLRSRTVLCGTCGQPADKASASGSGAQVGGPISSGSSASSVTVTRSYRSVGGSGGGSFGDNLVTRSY
EGFP-tagged human LaminA∆50/progerin (P02545, form named): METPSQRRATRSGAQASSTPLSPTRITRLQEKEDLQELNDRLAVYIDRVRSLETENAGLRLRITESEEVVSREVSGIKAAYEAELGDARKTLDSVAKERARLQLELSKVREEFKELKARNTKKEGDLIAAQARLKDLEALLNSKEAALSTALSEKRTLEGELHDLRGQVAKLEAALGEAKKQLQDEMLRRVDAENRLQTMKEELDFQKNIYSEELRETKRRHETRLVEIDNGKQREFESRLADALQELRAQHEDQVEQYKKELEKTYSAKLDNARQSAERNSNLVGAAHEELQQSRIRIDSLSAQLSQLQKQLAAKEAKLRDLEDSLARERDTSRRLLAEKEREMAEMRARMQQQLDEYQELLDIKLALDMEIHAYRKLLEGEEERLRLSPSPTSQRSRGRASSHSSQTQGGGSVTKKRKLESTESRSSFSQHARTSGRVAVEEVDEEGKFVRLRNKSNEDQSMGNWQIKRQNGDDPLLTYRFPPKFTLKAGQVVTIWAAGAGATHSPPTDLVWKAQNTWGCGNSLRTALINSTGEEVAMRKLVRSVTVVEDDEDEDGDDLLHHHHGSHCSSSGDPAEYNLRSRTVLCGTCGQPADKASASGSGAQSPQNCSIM
UniProt Q12888: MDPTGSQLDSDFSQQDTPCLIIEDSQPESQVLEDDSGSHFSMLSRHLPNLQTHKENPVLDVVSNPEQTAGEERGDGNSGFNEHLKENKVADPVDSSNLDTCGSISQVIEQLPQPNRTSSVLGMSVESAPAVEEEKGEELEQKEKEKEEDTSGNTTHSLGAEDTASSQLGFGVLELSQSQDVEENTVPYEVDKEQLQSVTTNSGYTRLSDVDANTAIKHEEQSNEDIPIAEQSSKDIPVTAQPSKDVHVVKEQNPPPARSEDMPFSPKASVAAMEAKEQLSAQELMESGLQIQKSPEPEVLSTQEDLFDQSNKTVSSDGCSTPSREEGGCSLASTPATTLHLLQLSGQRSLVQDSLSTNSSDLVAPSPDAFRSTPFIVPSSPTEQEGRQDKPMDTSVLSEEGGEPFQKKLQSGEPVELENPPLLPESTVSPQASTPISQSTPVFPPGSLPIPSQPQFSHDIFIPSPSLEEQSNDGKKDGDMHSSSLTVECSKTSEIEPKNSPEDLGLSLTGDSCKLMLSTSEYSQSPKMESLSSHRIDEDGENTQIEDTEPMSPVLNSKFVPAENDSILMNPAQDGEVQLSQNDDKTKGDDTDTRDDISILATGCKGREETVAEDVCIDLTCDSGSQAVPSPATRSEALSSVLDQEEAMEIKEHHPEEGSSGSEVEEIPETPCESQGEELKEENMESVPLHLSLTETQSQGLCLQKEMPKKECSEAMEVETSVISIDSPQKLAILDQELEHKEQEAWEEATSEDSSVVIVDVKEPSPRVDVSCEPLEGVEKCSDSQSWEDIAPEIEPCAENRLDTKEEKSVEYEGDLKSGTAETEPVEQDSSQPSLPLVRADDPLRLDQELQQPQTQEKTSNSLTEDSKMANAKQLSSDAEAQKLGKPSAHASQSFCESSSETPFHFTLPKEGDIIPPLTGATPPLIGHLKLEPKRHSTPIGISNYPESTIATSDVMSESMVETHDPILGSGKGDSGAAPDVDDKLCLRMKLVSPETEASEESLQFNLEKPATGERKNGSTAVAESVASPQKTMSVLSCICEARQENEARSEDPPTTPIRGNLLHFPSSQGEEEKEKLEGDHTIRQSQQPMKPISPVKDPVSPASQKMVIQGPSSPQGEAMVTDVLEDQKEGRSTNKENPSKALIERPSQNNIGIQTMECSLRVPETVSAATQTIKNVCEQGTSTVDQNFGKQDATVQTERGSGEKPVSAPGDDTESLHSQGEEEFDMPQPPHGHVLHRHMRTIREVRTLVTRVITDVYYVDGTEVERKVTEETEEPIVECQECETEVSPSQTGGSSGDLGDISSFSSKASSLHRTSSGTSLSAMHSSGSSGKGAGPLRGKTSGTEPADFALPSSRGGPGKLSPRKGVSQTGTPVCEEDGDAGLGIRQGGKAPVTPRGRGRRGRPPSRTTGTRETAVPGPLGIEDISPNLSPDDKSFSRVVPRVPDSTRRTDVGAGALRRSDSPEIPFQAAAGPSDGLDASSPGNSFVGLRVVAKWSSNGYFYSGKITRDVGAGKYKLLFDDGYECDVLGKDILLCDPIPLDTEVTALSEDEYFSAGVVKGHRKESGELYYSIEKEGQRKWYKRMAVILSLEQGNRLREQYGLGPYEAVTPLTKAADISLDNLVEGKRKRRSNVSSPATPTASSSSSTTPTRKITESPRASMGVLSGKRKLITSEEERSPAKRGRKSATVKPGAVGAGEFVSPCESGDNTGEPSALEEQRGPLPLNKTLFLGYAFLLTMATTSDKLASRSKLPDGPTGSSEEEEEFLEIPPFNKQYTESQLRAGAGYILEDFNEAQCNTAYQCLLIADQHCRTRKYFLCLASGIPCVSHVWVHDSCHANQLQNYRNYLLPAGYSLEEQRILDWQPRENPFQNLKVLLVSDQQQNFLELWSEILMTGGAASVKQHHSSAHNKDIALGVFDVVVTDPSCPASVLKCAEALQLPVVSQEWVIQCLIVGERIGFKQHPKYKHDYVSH

**Q.** With 53BP1 (from UniProt Q12888 1-1972) as the substance, how does the binding [1] read?
**A.** Its binding is “binds”.

**Q.** And the binding [2]?
**A.** The binding was “binds”.

Source: publication PMC8222272
